Laboratory results taken from the supplement of paper PMC12425257.
± gives the standard deviation of the averaged measurements. The list shows a part of the results.

What follows are compounds tested on Madurella mycetomatis MM55 (assay: metabolic activity (growth) relative to DMSO growth control; higher = more fungal growth). Conditions: 10 µM.

Row | SMILES | metabolic activity [%]
1 | COc1ccc(-c2cc3c(C)nc(N)nc3n([C@H]3CC[C@H](O)CC3)c2=O)cn1 | 113 ± 1.6
2 | CCCc1cc(N2CCCN(C)CC2)nc2sc3c(N)ncnc3c12 | 90.1 ± 25
3 | O=C(NCCO)c1cccc(-c2cc(Nc3ccc(OC(F)(F)F)cc3)ncn2)c1 | 131.8 ± 0.88
4 | CCS(=O)(=O)c1ccc(OC)c(Nc2ncc(-c3cccc(OC)c3)o2)c1 | 97.4 ± 16
5 | O=C(O)C(F)(F)F.O=C(O)C(F)(F)F.O=c1c2cnc(Nc3ccc(N4CCN(CC5CCCCC5)CC4)cc3)nc2n2ccnc2n1-c1ccccc1Cl | 82.6 ± 2.6
6 | CCC(=O)Nc1cc(Nc2cc(NC3CC3)n3ncc(C#N)c3n2)ccc1C | 95.9 ± 20
7 | COc1ccccc1-c1cc(/C=C2\C(=O)Nc3ncc(Br)cc32)cc(Br)c1O | 134 ± 25
8 | Cc1cccc(CC(=O)N2CCc3c2ccc(-c2cn(C)c4ncnc(N)c24)c3F)n1 | 110 ± 4
9 | CCOc1nc(C(=O)NCc2ccccc2S(N)(=O)=O)cc(N)c1C#N | 119 ± 12
10 | COc1cccc(-n2ncc3c(N/N=C/c4ccncc4)ncnc32)c1 | 93.6 ± 42
11 | O=C(c1ccc(-c2cc(-c3c[nH]nc3-c3ccccn3)ccn2)cc1)N1CCCC1 | 111 ± 2.8
12 | O=C(Nc1cnccn1)Nc1ccnc2c(F)cccc12 | 97.4 ± 3.2
13 | CCCS(=O)(=O)Nc1ccc(F)c(-n2cc(-c3cncc(OC)c3)nn2)c1F | 99.1 ± 13
14 | O=C(O)CSc1ncnc2cc(-c3ccc(F)cc3)sc12 | 110 ± 26

Arranged by length of the SMILES (low to high): some entries from above.
Row | SMILES | metabolic activity [%]
2 | CCCc1cc(N2CCCN(C)CC2)nc2sc3c(N)ncnc3c12 | 90.1 ± 25
10 | COc1cccc(-n2ncc3c(N/N=C/c4ccncc4)ncnc32)c1 | 93.6 ± 42
1 | COc1ccc(-c2cc3c(C)nc(N)nc3n([C@H]3CC[C@H](O)CC3)c2=O)cn1 | 113 ± 1.6
